In the supplement of paper PMC8728848:
This is one part of the list.

Experiments:
Test in all cases: glycan array binding signal (z-score within array); higher = stronger binding
Conditions in all cases: glycan notation: IUPAC condensed, linker removed
[1] = target: Gal(b1-3)GlcNAc(b1-6)[Gal(b1-3)]GalNAc
Summary of the method: (§1)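 Negative Z-scores can be read as non-binding. The Z-score is calculated within each array and then averaged across arrays of one protein sequence at different concentrations or buffers and across linkers. Arrays, 3228 in all, were curated from the Consortium for Functional Glycomics database and kept only where the protein sequence was available.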

Gal(b1-3)GlcNAc6S = target: Gal(b1-3)GlcNAc6S
Summary of the method: as §1

[2] = target: Gal(b1-3)[Fuc(a1-4)]GlcNAc
Summary of the method: as §1

[3] = target: Gal(b1-3)[Fuc(a1-4)]GlcNAc(b1-2)Man
Summary of the method: as §1

[4] = target: Gal(b1-3)[Fuc(a1-4)]GlcNAc(b1-2)Man(a1-3)[Gal(b1-3)[Fuc(a1-4)]GlcNAc(b1-2)Man(a1-6)]Man(b1-4)GlcNAc(b1-4)[Fuc(a1-6)]GlcNAc
Summary of the method: as §1

[5] = target: Gal(b1-3)[Fuc(a1-4)]GlcNAc(b1-3)Gal(b1-3)[Fuc(a1-4)]GlcNAc
Summary of the method: as §1

[6] = target: Gal(b1-3)[Fuc(a1-4)]GlcNAc(b1-3)Gal(b1-4)[Fuc(a1-3)]GlcNAc
Summary of the method: as §1

[7] = target: Gal(b1-3)[Fuc(a1-4)]GlcNAc(b1-6)GalNAc
Summary of the method: as §1

[8] = target: Gal(b1-3)[GlcNAc(b1-6)]GalNAc
Summary of the method: as §1

[9] = target: Gal(b1-3)[Neu5Ac(a2-6)]GalNAc
Summary of the method: as §1

[10] = target: Gal(b1-3)[Neu5Ac(a2-6)]GlcNAc(b1-4)Gal(b1-4)Glc
Summary of the method: as §1

[11] = target: Gal(b1-3)[Neu5Ac(b2-6)]GalNAc
Summary of the method: as §1

Gal(b1-4)Gal = target: Gal(b1-4)Gal
Summary of the method: as §1

[12] = target: Gal(b1-4)GalNAc(a1-3)[Fuc(a1-2)]Gal(b1-4)GlcNAc
Summary of the method: as §1

[13] = target: Gal(b1-4)GalNAc(b1-3)[Fuc(a1-2)]Gal(b1-4)GlcNAc
Summary of the method: as §1

Gal(b1-4)Glc = target: Gal(b1-4)Glc
Summary of the method: as §1

Gal(b1-4)Glc6S = target: Gal(b1-4)Glc6S
Summary of the method: as §1

Gal(b1-4)GlcNAc = target: Gal(b1-4)GlcNAc
Summary of the method: as §1

[14] = target: Gal(b1-4)GlcNAc(a1-6)Gal(b1-4)GlcNAc
Summary of the method: as §1

Gal(b1-4)GlcNAc(b1-2)Man = target: Gal(b1-4)GlcNAc(b1-2)Man
Summary of the method: as §1

[15] = target: Gal(b1-4)GlcNAc(b1-2)Man(a1-3)Man(b1-4)GlcNAc(b1-4)GlcNAc
Summary of the method: as §1

[16] = target: Gal(b1-4)GlcNAc(b1-2)Man(a1-3)[Gal(b1-4)GlcNAc(b1-2)Man(a1-6)]Man(b1-4)GlcNAc(b1-4)GlcNAc
Summary of the method: as §1

[17] = target: Gal(b1-4)GlcNAc(b1-2)Man(a1-3)[Gal(b1-4)GlcNAc(b1-2)Man(a1-6)]Man(b1-4)GlcNAc(b1-4)[Fuc(a1-6)]GlcNAc
Summary of the method: as §1

[18] = target: Gal(b1-4)GlcNAc(b1-2)Man(a1-3)[Gal(b1-4)GlcNAc(b1-2)Man(a1-6)][Gal(b1-4)GlcNAc(b1-4)]Man(b1-4)GlcNAc(b1-4)[Fuc(a1-6)]GlcNAc
Summary of the method: as §1

[19] = target: Gal(b1-4)GlcNAc(b1-2)Man(a1-3)[Gal(b1-4)GlcNAc(b1-2)Man(a1-6)][GlcNAc(b1-4)]Man(b1-4)GlcNAc(b1-4)[Fuc(a1-6)]GlcNAc
Summary of the method: as §1

[20] = target: Gal(b1-4)GlcNAc(b1-2)Man(a1-3)[GlcNAc(b1-2)Man(a1-6)]Man(b1-4)GlcNAc(b1-4)GlcNAc
Summary of the method: as §1

[21] = target: Gal(b1-4)GlcNAc(b1-2)Man(a1-3)[GlcNAc(b1-4)][Gal(b1-4)GlcNAc(b1-2)Man(a1-6)]Man(b1-4)GlcNAc(b1-4)GlcNAc
Summary of the method: as §1

[22] = target: Gal(b1-4)GlcNAc(b1-2)Man(a1-3)[Man(a1-6)]Man(b1-4)GlcNAc(b1-4)GlcNAc
Summary of the method: as §1

[23] = target: Gal(b1-4)GlcNAc(b1-2)Man(a1-6)Man(b1-4)GlcNAc(b1-4)GlcNAc
Summary of the method: as §1

[24] = target: Gal(b1-4)GlcNAc(b1-2)Man(a1-6)[GlcNAc(b1-2)Man(a1-3)]Man(b1-4)GlcNAc(b1-4)GlcNAc
Summary of the method: as §1

[25] = target: Gal(b1-4)GlcNAc(b1-2)Man(a1-6)[Man(a1-3)]Man(b1-4)GlcNAc(b1-4)GlcNAc
Summary of the method: as §1

[26] = target: Gal(b1-4)GlcNAc(b1-2)[Gal(b1-4)GlcNAc(b1-4)]Man(a1-3)[Gal(b1-4)GlcNAc(b1-2)Man(a1-6)]Man(b1-4)GlcNAc(b1-4)GlcNAc
Summary of the method: as §1

[27] = target: Gal(b1-4)GlcNAc(b1-2)[Gal(b1-4)GlcNAc(b1-4)]Man(a1-3)[Gal(b1-4)GlcNAc(b1-2)[Gal(b1-4)GlcNAc(b1-6)]Man(a1-6)]Man(b1-4)GlcNAc(b1-4)GlcNAc
Summary of the method: as §1

[28] = target: Gal(b1-4)GlcNAc(b1-2)[Gal(b1-4)GlcNAc(b1-4)]Man(a1-3)[GlcNAc(b1-4)][Gal(b1-4)GlcNAc(b1-2)Man(a1-6)]Man(b1-4)GlcNAc(b1-4)GlcNAc
Summary of the method: as §1

[29] = target: Gal(b1-4)GlcNAc(b1-2)[Gal(b1-4)GlcNAc(b1-4)]Man(a1-3)[GlcNAc(b1-4)][Gal(b1-4)GlcNAc(b1-2)[Gal(b1-4)GlcNAc(b1-6)]Man(a1-6)]Man(b1-4)GlcNAc(b1-4)GlcNAc
Summary of the method: as §1

[30] = target: Gal(b1-4)GlcNAc(b1-2)[Gal(b1-4)GlcNAc(b1-6)]Man(a1-6)[Gal(b1-4)GlcNAc(b1-2)Man(a1-3)]Man(b1-4)GlcNAc(b1-4)GlcNAc
Summary of the method: as §1

[31] = target: Gal(b1-4)GlcNAc(b1-2)[Gal(b1-4)GlcNAc(b1-6)]Man(a1-6)[Gal(b1-4)GlcNAc(b1-2)Man(a1-3)]Man(b1-4)GlcNAc(b1-4)[Fuc(a1-6)]GlcNAc
Summary of the method: as §1

B1: PX9937I-bfa-538-26-538 (Bacteroides fragilis) (protein)
chain: DKLDLSPIDYYGSGSYWKTEAQATAYIDGIHKHLRDAAWQHTITFGELRGGRFITGASSDGMGVSNGDIILQNFDETHTGVSKFGDLFGRITNLNLFIARVTDATYLSDEMKNFYLGEVYGLRAFYYFDLYRIYGGVPLRLTADVVEGVIDPNKLYMARSTPKEVMTQIKSDLNKSMEYFGNMNDFDPYKRGKKVYWSKAATECLMGEVYLWTSKVTTGDDVANPADLTIAKTHLESVLNNYNLKMLDDFSQVFNAKNKANDEIIFAIRFLEGEATNSNGTFTYNVGTGSTKNRYQANGEVFGDALDIQNTGNQTYEYNKAVYQNFDDADTRKEATFIASYNKDGKTGELSLYGTHVRKNIGYVNAQGARVYCGDYIFYRLPWVYLTLAEIANMEGDNAAVAKYINLVRKRAYGNAWDETLYAYPETADFTTNELAILHEKDKEFIQEGQRWWDLRRMTLTKGGTPLVFCKEGSLLGDAPILNKSTEAHKLLWPIEKTMLNKDPALEQTPGYK
[1]
  glycan array binding signal (z-score): -0.215
Gal(b1-3)GlcNAc6S
  glycan array binding signal (z-score): -0.639
[2]
  glycan array binding signal (z-score): -0.364
[3]
  glycan array binding signal (z-score): -0.717
[4]
  glycan array binding signal (z-score): 0.049
[5]
  glycan array binding signal (z-score): -0.766
[6]
  glycan array binding signal (z-score): -0.343
[7]
  glycan array binding signal (z-score): 2.39
[8]
  glycan array binding signal (z-score): -0.455
[9]
  glycan array binding signal (z-score): -0.632
[10]
  glycan array binding signal (z-score): -0.487
[11]
  glycan array binding signal (z-score): -0.133
Gal(b1-4)Gal
  glycan array binding signal (z-score): 0.027
[12]
  glycan array binding signal (z-score): -0.705
[13]
  glycan array binding signal (z-score): 0.354
Gal(b1-4)Glc
  glycan array binding signal (z-score): -0.375
Gal(b1-4)Glc6S
  glycan array binding signal (z-score): 0.229
Gal(b1-4)GlcNAc
  glycan array binding signal (z-score): -0.479
[14]
  glycan array binding signal (z-score): -0.725
Gal(b1-4)GlcNAc(b1-2)Man
  glycan array binding signal (z-score): 1.74
[15]
  glycan array binding signal (z-score): -0.029
[16]
  glycan array binding signal (z-score): 2.38
[17]
  glycan array binding signal (z-score): 0.387
[18]
  glycan array binding signal (z-score): 1.11
[19]
  glycan array binding signal (z-score): -1.18
[20]
  glycan array binding signal (z-score): 0.247
[21]
  glycan array binding signal (z-score): -0.423
[22]
  glycan array binding signal (z-score): -0.677
[23]
  glycan array binding signal (z-score): -1.03
[24]
  glycan array binding signal (z-score): -0.37
[25]
  glycan array binding signal (z-score): -0.348
[26]
  glycan array binding signal (z-score): -0.115
[27]
  glycan array binding signal (z-score): -0.654
[28]
  glycan array binding signal (z-score): -0.233
[29]
  glycan array binding signal (z-score): 0.62
[30]
  glycan array binding signal (z-score): 1.12
[31]
  glycan array binding signal (z-score): 2.24
